In patent US10702497B2, “Use of acyl-homoserine lactone derivatives as anti-thrombotic agents” (The University of Toledo, priority 2015, dated 2020):
For some of these results: At least one read-out could not be matched to a standard name with certainty. Some results were stated once for a whole list of compounds, not compound by compound.

Tests used:
human platelets [1] = assay: aggIgG-induced platelet hypersensitivity to thrombin (thrombin dose response, CD62P EC50); type: cell-based; conditions: 20 μM AHL, 15 min at 37° C., then aggIgG
human platelets [2] = assay: aggIgG-induced platelet activation, surface CD62P by flow cytometry; type: cell-based; conditions: aggIgG 50 or 500 μg/ml, AHL pre-incubation 15 minutes at 37° C.

Structure (SMILES)	effect on aggIgG-induced hypersensitivity to thrombin (thrombin EC50 for CD62P) (human platelets [1])	maximal inhibitory concentration (MIC) for aggIgG (human platelets [2])
CCCC(=O)CC(=O)N[C@@H]1CCOC1=O (stereo in doubt) [6C-AHL, N-(β-ketocaproyl)-L-homoserine lactone]	no effect on platelet activation whatsoever	–
CCCCCC(=O)CC(=O)N[C@@H]1CCOC1=O [8C-AHL, N-(3-oxooctanoyl)-L-homoserine lactone]	partially inhibited	–
CCCCCCCCCCCC(=O)CC(=O)N[C@@H]1CCOC1=O [14C-AHL, N-3-oxo-tetradecanoyl-L-homoserine lactone]	no ability to inhibit hypersensitivity	–
CCCCCCCC(=O)CC(=O)N[C@H]1CCOC1=O [10C-AHL, N-(3-oxodecanoyl)-L-homoserine lactone]	return thrombin responsiveness (EC50) values back to those observed in platelets not treated with aggIgG	< 20 µM
CCCCCCCCCC(=O)CC(=O)N[C@@H]1CCOC1=O [12C-AHL, N-oxo-dodecanoyl-L-homoserine lactone]	return thrombin responsiveness (EC50) values back to those observed in platelets not treated with aggIgG	< 20 µM
